In patent US20180346555A1:
Results are given in words; binding and its absence hold for the method and conditions named. Some results given as binding are weak or reduced against the parent protein; the word gives no strength.

T1: natural Bet v 1 (Betula verrucosa (Betula pendula)) (UniProt P15494)
T1 sequence: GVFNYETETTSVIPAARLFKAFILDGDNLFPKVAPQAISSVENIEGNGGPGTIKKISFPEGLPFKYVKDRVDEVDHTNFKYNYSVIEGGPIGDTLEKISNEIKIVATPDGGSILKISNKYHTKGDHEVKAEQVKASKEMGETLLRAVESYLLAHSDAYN

T2: Celery (Api g 1) (Celery) (UniProt P49372)
T2 sequence (looked up): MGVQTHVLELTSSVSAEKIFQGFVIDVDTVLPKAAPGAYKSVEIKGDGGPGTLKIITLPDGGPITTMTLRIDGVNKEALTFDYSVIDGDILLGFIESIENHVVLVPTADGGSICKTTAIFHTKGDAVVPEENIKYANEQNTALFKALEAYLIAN


How the values were obtained:
[1] = molecular target: T1, natural Bet v 1 (Betula verrucosa (Betula pendula)); assay: SPR, 25C and 37C
[2] = molecular target: mutant Bet v 1-MMH (Betula verrucosa (Betula pendula)); assay: SPR, 25C and 37C; members by Tables 4 and 5
[3] = molecular target: Alder (Aln g 1) (Alder) (UniProt P38948); assay: SPR, 25C; members by Table 6
[4] = molecular target: T2, Celery (Api g 1) (Celery); assay: SPR, 25C; member by Table 8

Binder | binding [1] | other results
H4H16946P (antibody, human IgG4, V domains shown) VH: EVQLVESGGGLVQPGGSLRLSCVASGFTFSNYDMNWVRQAPGEGLEWISYISYSDHNIYYIDSVKGRFTISRDNAKNSLYLQMNSLRAEDTAIYYCAREALASSSFDYWGQGTLVTVSS VL: EIVMTQSPATLSVSPGERVTLSCRASQSVSGNLAWYQQKPGQAPRLLIYSASTGATGVPARFSGSGSGTEFTLTISSLQSEDFALYYCQQYNKWPRTIGQGTKVEIK | binds | binding [2]: binds
H4H16950P (antibody, human IgG4, V domains shown) VH: QVQLVQSGAEVKKPGASVKVSCKTSGYTFTNYGITWVRQAPGQGLEWMGWISAYNGNTNYAQNVQGRVTMTTDTSTSTAYMEVRSLRSDDTAVYYCARRSSMLHFQHWGQGTLVTVSS VL: DIVMTQSPDSLAVSLGERATINCKSSQHVLYDSSNENYLAWFQQKPGQPPKLLIYWASTRESGVPDRFSGSGSGTDFTLTISSLQAEDVAVYYCQQYSSAPYTFGQGTKLEIK | binds | binding [3]: binds
H4H16960P (antibody, human IgG4, V domains shown) VH: QLQLQESGPGLVRPSETLSLTCTVSGGSISSSNYWWGWIRQPPGKGLEWIGSIYYSGITYYNPSLKSRVTISADTSKDQFSLKLRSVTAADTAVYYCAKLEWLRLDFWGQGTTVTVSS VL: DIQMTQSPSSVSASVGDRVTITCRASQGISSWLVWYQQKPGKVPKLLIYAASSLQSGVPLRFSGSGSGTDFTLTISSLQPEDFATYYCQQAKSFPLTFGQGTRLEIK | binds | –
H4H16987P (antibody, human IgG4 S228P, kappa, V domains shown) VH: EVQLVESGGGLVQPGGSLRLSCAASGFTVSSNSMSWVRQAPGEGLEWVSVIFSGGITYYSDSVKGRFTISRHNSKNTLYLQMNSLRTEDTAVYYCARHSNWNFDAFDIWGQGTMVTVSS VL: DIQMTQSPSSLSASVGDRVTITCRASQSFDTYLNWYQQKPGKAPNLLIYATSSLQSGVPSRFSGSGSGTDFTLTISSLQPEDFGTYYCQQSYSIPYTFGQGTKLEIKR | binds | binding [2]: binds
H4H16991P (antibody, human IgG4, V domains shown) VH: QVQLVQSGAEVRKPGASVKVSCKASGYTFTGYYLHWVRQAPGQGLEWMGLINPNTGGTNFAQKFQGRVTMTRDSSISAAYMELSRLRSDDTAVYYCARQHWNRYFDNWGQGTLVTVSS VL: DIQMTQSPSTLSASVGDRVTITCRASQSVGNWLAWYQQKPGKAPKLLIQEASSIESGVPSRFSGSGSGTEFTLIVSSLQPDDFATYYCQQYNSYSWTFGHGTKVEIK | binds | –
H4H17001P (antibody, human IgG4, V domains shown) VH: QVQLVESGGGLVKPGGSLRLSCAASGFTFSDYYMNWIRQAPGKGLEWISLISSSGSAIYYSDSVKGRFTISRDNARKSLYLQVNSLRAEDTAVYYCARDRGEWALGAYYYGLDVWGQGTTVTVSS VL: DIVMTQSPLSLPVTPGEPASISCRSSQSLLHSDGYNYLDWYLQKSGQSPQLLIYLGSNRASGVPDRFSGSGSGTDFTLKISRMEAEDVGVYYCMQALQTPYTFGQGTKLEIK | binds | –
H4H17015P (antibody, human IgG4, V domains shown) VH: QVQLQESGPGLVKPSQTLSLTCTVSGGSISSADHYWSWIRQQPGKGLEWIGYISYRGTTYYNPTLESRVSISVDTFKNQFSLMLHSVTVADTAVYYCAKVLQGLVRFRDYGFDVWGQGTTVTVSS VL: DIQLTQSPPFLSASVGDRVTITCWASQDISSYLAWYQQNPGKSPKLLIYDAFTLHTGVPSRFSGSGSGTEFTLTISSLQPEDFATFYCQHLYSFPFTFGPGTKVDIK | binds | –
H4H17027P (antibody, human IgG4, V domains shown) VH: EVQLVESGGGLVQPGGSLRLSCAASGFTFRNYAMHWVRQAPGEGLEWVAAIYRNSDSIDYADSVKGRFTISRDNAKNSLYLQMNSLKTEDTALYYCAKDEGFLEYFDSWGQGTLVTVSS VL: EIVLTQSPGTLSLSPGERASLSCRASQSVSSSFLAWYQQKPGQAPRLLIYGVSSRFIGIPDRFSGGGSGTDFTLTITRLEPEDFAVYYCQQYGRSPWTFGQGTKVEIK | binds | –
H4H17028P (antibody, human IgG4, V domains shown) VH: QVQLVESGGGVVQPGRSLRLSCAASGFTFSRYAIHWVRQAPGKGLEWVAVISYDGDDKYYGDSVKGRFTISRDNSKTMVYLHMNSLRTEDTAVYYCAKDGYSLYGKDYFDYWGQGTLVTVSS VL: EIVLTQSPGTLPLSPGERATLSCRASQSITNSYLAWYQQKPDQAPRLLIYGASSRATGIPDRFSGSESGTDFTLTISRLEPEDFAVYYCQQYVRSPWTFGQGTKVEIK | binds | –
H4H17031P (antibody, human IgG4, V domains shown) VH: QVQLQQWGAGLLKPSETLSLTCVVYGESFGNYHWNWIRQSPGKRLEWIGEINQNGHTNYNPSLKSRVTISVDTSKIQFSLRLNSVTAADTAVYFCARGHNYVNSYFGLDVWGQGTTVTVSS VL: EIVMTQSPATLSVSPGERATLSCRTSQSVSISLAWYQRKPGQAPRLLIFGSSTRATGVPARFSGSGSGTEFTLTISSLQSEDFAVYYCQQYNNWPYTFGQGTKLEIK | binds | –
H4H17033P (antibody, human IgG4, V domains shown) VH: QVQLVQSGAEVKKPGASVKVSCKASGYTFAAHYMHWVRQAPGQGLEWMGWINTYTGGTNYGQKFQGRVTMTRDTSITTAYMELSRLRSDDTAVYYCARDRRNWNFVFEYWGQGTLVTVSS VL: DIQMTQSPSSLSASVGDRVTISCRASQNIKNYLNWYQQKPGKAPKLLIYEASNLQSGAPSRFSGSGSGTDFTLTISSLEPEDFATYYCQQSFSIPWTFGQGTKVEIK | binds | binding [4]: binds
